From PubChem BioAssay AID493014 (National Center for Advancing Translational Sciences (NCATS), 2011)
Among all 340,000 compounds or so, about 170 (0.05%) were called active. Inconclusive means that the source gave no clear call. Such entries were picked first, then a sample of the others. Calls come from the whole dose curve; as a rule, active = well fitted inhibition curve with a large enough effect in the signal ratio, with a control signal flat (not every such curve was filed as active); inconclusive = small, poorly fitted or top-dose-only effect, or effect the other way, or a change in a side signal; inactive = flat fitted curve, though single readings scatter; the % refers to the signal ratio. Potencies of inconclusive entries are doubtful fits and often do not repeat.

assay: qHTS Assay to Find Inhibitors of Chronic Active B-Cell Receptor Signaling; conditions: ABC-DLBCL IkBa-CBG/CBR reporter, luminescence ratio (green luciferase fused to IkBa over red control in TMD8 lymphoma cells), 4 h; activity change, negative = inhibition: at 46.1 µM (top of the series);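 for activity change, negative = inhibition: plate controls were basal doxycycline-induced cells for no effect and cells given 10 µM MG132 for full effect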
Procedure, shortened: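 TMD8 ABC-DLBCL cells carrying doxycycline-inducible green luciferase fused to IkappaBalpha plus unfused red luciferase were exposed to compounds (up to 46 uM) for 4 hrs at 37C. Activity came from the overlap-corrected green/red luminescence ratio.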
Potency is the fitted concentration of half-maximal effect.

| SMILES | Potency | activity change, negative = inhibition |
| --- | --- | --- |
| Cc1nc(N2N=C(c3ccc(Cl)cc3)CC2c2ccco2)sc1C(=O)N(C)C (configuration not stated) | inconclusive: 20 µM [falling, partial curve, poor fit] |  |
| O=C(Nc1ccc(Br)cc1)c1csc(-c2ccncc2)n1 |  | inconclusive: -16.2% |
| CSc1nsc(N/N=C/c2ccc3c(c2)OCO3)c1C#N |  | inconclusive: 3.31% |
| COc1cc2c(cc1OC)C(C)N(C(=O)c1cc(Cl)nc(Cl)c1)CC2 (configuration not stated) |  | inactive: -11.6% |
| COc1ccc(OC2CCN(S(=O)(=O)c3ccc(C(C)=O)cc3)CC2)cc1 |  | inactive: -11.9% |
| Cc1ccc(NC(=O)CN(C)C(=O)Cn2ccsc2=N)cc1 |  | inactive: 1.2% |
| COc1cc(CNc2ccc3[nH]c(=O)[nH]c3c2)ccc1OCc1ccc(F)cc1Cl |  | inconclusive: 11.4% |
| COc1ccc(OC)c(S(=O)(=O)N2CCCCC2C(=O)N2CCN(c3ccccn3)CC2)c1 (configuration not stated) |  | inconclusive: -1.18% |
| Cc1cccc(C)c1OCC(=O)Nc1ccccc1N1CCCCC1 |  | inconclusive: 9.74% |
| O=C(c1ccc2c(c1)OCCO2)C1CCN(C(=O)Nc2ccc(F)cc2)CC1 |  | inconclusive: -16.1% |
| Nc1nnc(CC(=O)N2CCCCC2)s1 |  | inconclusive: -2.24% |
| Cc1cc(C)cc(NS(=O)(=O)c2ccc3[nH]c(=O)[nH]c3c2)c1 |  | inconclusive: 6.24% |
| COC(=O)c1ccc2c(=O)n3nc(Nc4ccc(F)cc4F)sc3nc2c1 |  | inactive: -2.94% |
| Cc1cc(C(=O)NNC(=S)Nc2ccccc2C)cs1 | inconclusive: 18.4 µM [falling, partial curve] |  |
| COC(=O)C1=C(C)N(c2ccccc2)/C(=C/c2cccs2)C1=O |  | inconclusive: 3.19% |
| CCc1ccc(NC(=O)CSc2nnc3[nH]c(=O)cc(-c4ccccc4)n23)cc1 |  | inactive: -7.53% |
| CCOC(=O)/C=C/C(=O)OCC(=O)Nc1cccc(Br)c1 |  | inconclusive: -0.85% |
| Cc1noc(C)c1COc1cccc(C(=O)Oc2ccc3c(c2)OCO3)c1 |  | inconclusive: 1.03% |
| CS(=O)(=O)NCCCNc1c(Cl)cccc1[N+](=O)[O-] |  | inconclusive: -13.9% |
| CN1CCN(c2nc(C#N)cc(-c3ccccc3)n2)CC1 |  | inconclusive: -0.458% |
| COc1cc2oc(=O)cc(-c3ccc(-c4ccc(N(C)C)cc4)cc3)c2c(OC)c1OC |  | inactive: -0.605% |

| SMILES | Potency | activity change, negative = inhibition |
| --- | --- | --- |
| CCOc1ccccc1NC(=O)CSc1ccccc1 |  | inactive: 2.99% |
| N/C(=N\OC(=O)COc1ccc(Cl)cc1)c1cccnc1 |  | inconclusive: 3.37% |
| CCOC(=O)C1CCN(Cc2ccc(Cl)c(Cl)c2)CC1 |  | inconclusive: 8.69% |
| Cc1cc2nc(SC(C)C(=O)O)[nH]c2cc1C (configuration not stated) |  | inconclusive: 2.21% |
| CCN(CC(=O)Nc1c(F)cccc1F)C(=O)c1cccnc1Sc1ccccc1 |  | inactive: -0.182% |
| O=S(=O)(Nc1nc(-c2ccccc2)cs1)c1cc(Cl)ccc1Cl | inconclusive: 35.5 µM [rising, partial curve, poor fit] |  |
| CCNC(=S)NNC(=O)c1csc(C(C)C)c1 |  | inactive: -27% |
| NC(=O)c1nsc(C(=O)N(c2ccccc2F)C(C(=O)NCc2ccc(F)cc2)c2ccc(O)cc2)c1N (configuration not stated) | inconclusive: 35.5 µM [falling, single point] |  |
| O=C(Nc1ccccc1Cl)ON=C1c2ccccc2-c2ccccc21 | inconclusive: 35.5 µM [falling, single point] |  |
| Nc1nc(SCC(=O)Nc2cccc(S(=O)(=O)N3CCCCCC3)c2)n[nH]1 |  | inconclusive: -27.1% |
| COc1ccc(CN2CCC(C(=O)c3ccc(Cl)cc3)CC2)cc1 |  | inactive: -0.517% |
| CCc1ccc(C(=O)CN2CCSC2=N)cc1 |  | inconclusive: -10.3% |
| COC(=O)c1ccc(Sc2ccccc2NS(=O)(=O)c2ccc(NC(C)=O)cc2)nc1 |  | inconclusive: -17.2% |
| CC(=O)Nc1nc2cc(N)ccc2s1 |  | inconclusive: -3.18% |
| CC(C)Oc1ccc(OCCn2c(S(=O)(=O)O)nc3c(N)ncnc32)cc1 |  | inconclusive: -0.343% |
| COc1cc2cnc(-c3ccccc3)c(-c3cc(OC)c(OC)c(OC)c3)c2cc1OC |  | inconclusive: 0.0458% |
| O=C(O)c1cccc(NC(=O)C2CCCO2)c1 (configuration not stated) |  | inconclusive: 5.11% |
| CC(C)C(=O)Nc1cccc(C(=O)Nc2nnc(C(C)(C)C)s2)c1 |  | inconclusive: -3.62% |
| COC(=O)Nc1sc2c(c1C(=O)NCc1ccco1)CCCC2 |  | inconclusive: 0.0286% |
| COc1cccc(-c2nc(CS(=O)(=O)CC(=O)N3CCN(c4ccccn4)CC3)c(C)o2)c1 |  | inactive: 3.96% |
| O=C(Cc1ccccc1)NC(=S)Nc1ccc2oc(-c3ccccc3)nc2c1 |  | inconclusive: 12.3% |

A portion from the list above, as a working copy:

| SMILES | Potency | activity change, negative = inhibition |
| --- | --- | --- |
| CSc1nsc(N/N=C/c2ccc3c(c2)OCO3)c1C#N |  | inconclusive: 3.31% |
| COc1cc2c(cc1OC)C(C)N(C(=O)c1cc(Cl)nc(Cl)c1)CC2 (configuration not stated) |  | inactive: -11.6% |

Later entries:

| SMILES | Potency | activity change, negative = inhibition |
| --- | --- | --- |
| CCn1c(SCC(=O)NCc2ccco2)nnc1-c1ccc(N)cc1 |  | inconclusive: 2.84% |
| O=C(Nc1ccc(S(=O)(=O)Nc2ncccn2)cc1)c1ccc(N2CCCC2=O)cc1 |  | inactive: -6.62% |
| CNC(=O)c1ccsc1NC(=O)c1ccc(S(=O)(=O)N2CCCc3ccccc32)cc1 |  | inactive: 0.448% |
| COc1ccc(C)cc1CN(C)c1ccc(S(=O)(=O)N2CCN(C)CC2)cn1 |  | inactive: 6.74% |
| NC(=O)N/N=C/c1ccc(-c2ccc([N+](=O)[O-])cc2)o1 |  | inconclusive: 3.18% |
| CC12CCC(C/C1=N\OC(=O)c1ccc(F)cc1)C2(C)C (configuration not stated) |  | inconclusive: 15.2% |
| O=C(COC(=O)c1ccccc1Br)NC(=O)NCc1ccccc1 | inconclusive: 6.51 µM [falling, partial curve, poor fit] |  |
| COC(=O)c1ccc(C(=O)OC)c(NC(=O)CN(c2ccccc2)S(=O)(=O)N(C)C)c1 | inconclusive: 10 µM [rising, partial curve] |  |
| COCCCN(C(=O)CSCC(=O)Nc1cccc(C)c1)c1c(N)n(Cc2ccccc2)c(=O)[nH]c1=O |  | inconclusive: -2.27% |
| CCNC(=O)c1sc2cc(C)ccc2c1Cl | inconclusive: 35.5 µM [falling, single point] |  |
| CCc1ccc(NC(=O)c2nc(S(=O)(=O)Cc3ccccc3)ncc2Cl)cc1 | inconclusive: 17.8 µM [rising, single point] |  |
| O=C(CSc1nnc(COc2ccc(Br)cc2)o1)N1CCOCC1 | inconclusive: 17.8 µM [falling, partial curve, poor fit] |  |
| C=C(C)n1c(=O)n(Cc2ccc(C)cc2)c2ccccc21 | inconclusive: 20 µM [rising, partial curve, poor fit] |  |
| CCOC(=O)c1[nH]c2cc(OC)c(OC)cc2c1NC(=O)C(C)N1CCN(Cc2ccccc2)CC1 (configuration not stated) |  | inconclusive: 0.647% |
| CCC(=O)NCCc1nc2cc(NC(=O)c3cccc(Br)c3)ccc2n1C | inconclusive: 15.8 µM [falling, partial curve] |  |
| COc1cccc(NC(=O)C2CCCN2C(=O)Nc2ccccc2F)c1 (configuration not stated) |  | inconclusive: 5.05% |
| O=C(CNC1CCCCC1)Nc1ccc(S(=O)(=O)N2CCCCC2)cc1 |  | inactive: -0.248% |
| O=[N+]([O-])c1ccc(Cl)cc1CN1CCCCCC1 | inconclusive: 31.6 µM [falling, single point] |  |
| Cc1ccc(/C=N/n2c(-c3cccc(Cl)c3)n[nH]c2=S)o1 |  | inconclusive: -8.22% |
| O=C(Nc1ccn(Cc2c(F)c(F)cc(F)c2F)n1)c1ccc(COc2cc(Cl)ccc2Cl)o1 |  | inconclusive: 1.62% |
| Cc1cccc(NC(=S)N2CCN(S(=O)(=O)c3cccc(F)c3)CC2)c1 |  | inactive: -1.55% |

| SMILES | Potency | activity change, negative = inhibition |
| --- | --- | --- |
| COC(=O)CN(C#N)c1nc(N(C)C)nc(N(C)C)n1 | inconclusive: 12.6 µM [falling, single point] |  |
| Cc1ccc(C(=O)Nc2ccc3c(c2)nc2n3CCSC2)cc1 |  | inconclusive: -14% |
| C/C(=N\N1C(=O)c2ccccc2NC1c1ccccc1)c1ccccc1O (configuration not stated) |  | inactive: 5.64% |
| COc1ccc(C2=NN(C(=O)CSc3nc4ccccc4s3)C(c3ccc(F)cc3)C2)cc1 (configuration not stated) |  | inconclusive: 5.39% |
| Cc1ccc(-c2nnc(N3CCN(C(=O)CN4CCOCC4)CC3)c3ccccc23)cc1 |  | inactive: 2.24% |
| CCOc1ccc(OCC)c(-c2c(=O)n(OCc3ccccc3Br)c3ccccc3[n+]2[O-])c1 |  | inconclusive: 4.52% |
| Cc1nc(NC(=O)c2ccc(F)cc2)sc1C(=O)Nc1ccc2c(c1)CCC2 | inconclusive: 35.5 µM [rising, single point] |  |
| C=C(C)COc1ccc(-c2[nH]ncc2-c2ccccc2)c(O)c1 | inconclusive: 17.8 µM [rising, single point] |  |
| COc1cc(-c2nc(-c3ccc(-c4ccccc4)nc3OC)no2)cc(OC)c1OC |  | inconclusive: 1.24% |
| CCOc1ccc(OCCNCc2ccc(OC(C)C(=O)N(C)C)c(OCC)c2)cc1 (configuration not stated) |  | inactive: 0.315% |
| O=S(=O)(c1ccc(F)cc1)c1nc(-c2ccco2)oc1Nc1ccc(F)cc1 | inconclusive: 4.61 µM [falling, full curve] |  |
| O=C(/C=C/c1cccc([N+](=O)[O-])c1)NCc1cccnc1 | inconclusive: 3.55 µM [falling, partial curve, poor fit] |  |
| CCc1nn(CCCC(=O)NCc2ccc(OC(C)C)cc2)c(=O)c2cc3occc3n12 | inconclusive: 25.1 µM [falling, partial curve, poor fit] |  |
| COC(=O)CCNS(=O)(=O)c1ccc2ccccc2c1 |  | inconclusive: 0.937% |
| O=c1[nH]c(-c2cccnc2)nc2ccccc12 |  | inconclusive: 15.1% |
| Oc1c(CN2CCCC(C(F)(F)F)C2)cc(Cl)c2ccccc12 (configuration not stated) |  | inconclusive: -16.6% |
| O=C(N/N=C/c1ccc(O)cc1)c1ccncc1 |  | inactive: 1.12% |
| CCC1CCCCN1C(=O)c1c[nH]c2ccc(S(=O)(=O)N(C)c3ccc(Cl)cc3)cc2c1=O (configuration not stated) |  | inconclusive: -0.296% |
| C=C(C)COc1ccc(-c2[nH]ncc2Oc2cccc(OC)c2)c(O)c1 |  | inconclusive: 4.34% |

Shown comma-delimited: entries from further up
SMILES,Potency,"activity change, negative = inhibition"
COc1cc2cnc(-c3ccccc3)c(-c3cc(OC)c(OC)c(OC)c3)c2cc1OC,,inconclusive: 0.0458%
Cc1cccc(NC(=S)N2CCN(S(=O)(=O)c3cccc(F)c3)CC2)c1,,inactive: -1.55%
CCc1nn(CCCC(=O)NCc2ccc(OC(C)C)cc2)c(=O)c2cc3occc3n12,"inconclusive: 25.1 µM [falling, partial curve, poor fit]",
